Laboratory results reported in the supplement of paper PMC10849652.
Some of the results follow.

Amino acid sequences for entries named in this document (tags omitted). A change or cut given only in a name is not applied to a line headed by its entry.
UniProt Q9Y696: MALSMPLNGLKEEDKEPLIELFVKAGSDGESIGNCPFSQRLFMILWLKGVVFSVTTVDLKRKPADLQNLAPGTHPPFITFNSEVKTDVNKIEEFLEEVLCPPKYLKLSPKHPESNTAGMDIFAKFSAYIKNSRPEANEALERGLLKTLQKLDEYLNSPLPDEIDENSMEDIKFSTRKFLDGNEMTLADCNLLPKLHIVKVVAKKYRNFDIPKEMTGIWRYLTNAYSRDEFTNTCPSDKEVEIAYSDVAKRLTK
UniProt Q9UIV1, whole entry, looked up: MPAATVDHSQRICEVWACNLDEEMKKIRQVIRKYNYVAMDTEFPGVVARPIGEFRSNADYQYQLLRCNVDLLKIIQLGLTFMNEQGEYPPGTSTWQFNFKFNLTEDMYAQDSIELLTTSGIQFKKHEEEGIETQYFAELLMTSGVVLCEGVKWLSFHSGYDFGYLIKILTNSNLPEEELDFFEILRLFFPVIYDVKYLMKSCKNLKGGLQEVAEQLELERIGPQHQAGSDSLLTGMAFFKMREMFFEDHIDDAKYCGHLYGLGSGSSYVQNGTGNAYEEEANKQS
UniProt O43405: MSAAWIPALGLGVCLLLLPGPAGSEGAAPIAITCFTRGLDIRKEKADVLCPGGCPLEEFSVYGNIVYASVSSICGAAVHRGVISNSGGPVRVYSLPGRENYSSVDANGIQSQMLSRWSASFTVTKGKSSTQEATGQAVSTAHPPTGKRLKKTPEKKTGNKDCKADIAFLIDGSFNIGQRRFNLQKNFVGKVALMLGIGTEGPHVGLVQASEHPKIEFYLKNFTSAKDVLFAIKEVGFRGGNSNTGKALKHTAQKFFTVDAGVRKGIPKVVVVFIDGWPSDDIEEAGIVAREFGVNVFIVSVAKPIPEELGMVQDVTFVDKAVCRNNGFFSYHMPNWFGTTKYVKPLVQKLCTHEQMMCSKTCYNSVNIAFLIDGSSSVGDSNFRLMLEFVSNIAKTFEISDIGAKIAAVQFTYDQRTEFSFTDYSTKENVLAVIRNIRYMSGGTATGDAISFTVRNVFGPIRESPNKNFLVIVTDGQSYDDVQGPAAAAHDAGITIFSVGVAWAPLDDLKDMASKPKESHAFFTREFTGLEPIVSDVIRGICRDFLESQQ
UniProt Q99653: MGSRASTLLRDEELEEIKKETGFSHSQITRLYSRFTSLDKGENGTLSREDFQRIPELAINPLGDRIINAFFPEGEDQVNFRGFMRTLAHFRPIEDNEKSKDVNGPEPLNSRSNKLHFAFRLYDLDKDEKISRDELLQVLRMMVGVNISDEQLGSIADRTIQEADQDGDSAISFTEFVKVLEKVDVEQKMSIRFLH
UniProt Q9NYJ1, whole entry, looked up: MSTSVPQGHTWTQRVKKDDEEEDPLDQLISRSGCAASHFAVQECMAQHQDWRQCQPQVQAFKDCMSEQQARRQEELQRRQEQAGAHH
UniProt Q8IWV2: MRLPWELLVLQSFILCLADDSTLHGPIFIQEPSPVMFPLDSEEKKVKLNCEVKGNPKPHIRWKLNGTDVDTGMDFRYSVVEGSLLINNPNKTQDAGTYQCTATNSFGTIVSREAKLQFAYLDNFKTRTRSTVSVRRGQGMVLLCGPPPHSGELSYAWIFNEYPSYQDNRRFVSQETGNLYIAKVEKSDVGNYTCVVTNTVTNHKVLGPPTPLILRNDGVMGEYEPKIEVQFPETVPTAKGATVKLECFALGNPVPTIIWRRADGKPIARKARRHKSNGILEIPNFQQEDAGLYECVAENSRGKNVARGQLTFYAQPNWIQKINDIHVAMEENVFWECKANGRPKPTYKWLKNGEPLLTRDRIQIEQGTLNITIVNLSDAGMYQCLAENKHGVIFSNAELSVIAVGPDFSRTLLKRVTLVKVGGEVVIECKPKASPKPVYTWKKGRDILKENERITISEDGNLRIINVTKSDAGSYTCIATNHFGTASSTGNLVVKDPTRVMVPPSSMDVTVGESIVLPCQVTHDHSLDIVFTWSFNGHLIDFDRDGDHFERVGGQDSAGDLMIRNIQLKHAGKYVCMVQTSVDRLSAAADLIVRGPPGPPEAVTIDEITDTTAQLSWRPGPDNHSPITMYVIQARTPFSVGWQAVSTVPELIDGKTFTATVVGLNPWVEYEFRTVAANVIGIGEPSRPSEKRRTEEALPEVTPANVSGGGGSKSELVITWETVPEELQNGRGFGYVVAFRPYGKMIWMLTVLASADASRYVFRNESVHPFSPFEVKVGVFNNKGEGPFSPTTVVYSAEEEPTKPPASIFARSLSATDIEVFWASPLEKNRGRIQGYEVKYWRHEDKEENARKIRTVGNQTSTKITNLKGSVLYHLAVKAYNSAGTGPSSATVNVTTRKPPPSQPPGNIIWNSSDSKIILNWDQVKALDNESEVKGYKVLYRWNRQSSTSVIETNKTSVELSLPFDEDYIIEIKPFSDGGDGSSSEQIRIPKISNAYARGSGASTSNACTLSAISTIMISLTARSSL
UniProt A5YKK6, whole entry, looked up: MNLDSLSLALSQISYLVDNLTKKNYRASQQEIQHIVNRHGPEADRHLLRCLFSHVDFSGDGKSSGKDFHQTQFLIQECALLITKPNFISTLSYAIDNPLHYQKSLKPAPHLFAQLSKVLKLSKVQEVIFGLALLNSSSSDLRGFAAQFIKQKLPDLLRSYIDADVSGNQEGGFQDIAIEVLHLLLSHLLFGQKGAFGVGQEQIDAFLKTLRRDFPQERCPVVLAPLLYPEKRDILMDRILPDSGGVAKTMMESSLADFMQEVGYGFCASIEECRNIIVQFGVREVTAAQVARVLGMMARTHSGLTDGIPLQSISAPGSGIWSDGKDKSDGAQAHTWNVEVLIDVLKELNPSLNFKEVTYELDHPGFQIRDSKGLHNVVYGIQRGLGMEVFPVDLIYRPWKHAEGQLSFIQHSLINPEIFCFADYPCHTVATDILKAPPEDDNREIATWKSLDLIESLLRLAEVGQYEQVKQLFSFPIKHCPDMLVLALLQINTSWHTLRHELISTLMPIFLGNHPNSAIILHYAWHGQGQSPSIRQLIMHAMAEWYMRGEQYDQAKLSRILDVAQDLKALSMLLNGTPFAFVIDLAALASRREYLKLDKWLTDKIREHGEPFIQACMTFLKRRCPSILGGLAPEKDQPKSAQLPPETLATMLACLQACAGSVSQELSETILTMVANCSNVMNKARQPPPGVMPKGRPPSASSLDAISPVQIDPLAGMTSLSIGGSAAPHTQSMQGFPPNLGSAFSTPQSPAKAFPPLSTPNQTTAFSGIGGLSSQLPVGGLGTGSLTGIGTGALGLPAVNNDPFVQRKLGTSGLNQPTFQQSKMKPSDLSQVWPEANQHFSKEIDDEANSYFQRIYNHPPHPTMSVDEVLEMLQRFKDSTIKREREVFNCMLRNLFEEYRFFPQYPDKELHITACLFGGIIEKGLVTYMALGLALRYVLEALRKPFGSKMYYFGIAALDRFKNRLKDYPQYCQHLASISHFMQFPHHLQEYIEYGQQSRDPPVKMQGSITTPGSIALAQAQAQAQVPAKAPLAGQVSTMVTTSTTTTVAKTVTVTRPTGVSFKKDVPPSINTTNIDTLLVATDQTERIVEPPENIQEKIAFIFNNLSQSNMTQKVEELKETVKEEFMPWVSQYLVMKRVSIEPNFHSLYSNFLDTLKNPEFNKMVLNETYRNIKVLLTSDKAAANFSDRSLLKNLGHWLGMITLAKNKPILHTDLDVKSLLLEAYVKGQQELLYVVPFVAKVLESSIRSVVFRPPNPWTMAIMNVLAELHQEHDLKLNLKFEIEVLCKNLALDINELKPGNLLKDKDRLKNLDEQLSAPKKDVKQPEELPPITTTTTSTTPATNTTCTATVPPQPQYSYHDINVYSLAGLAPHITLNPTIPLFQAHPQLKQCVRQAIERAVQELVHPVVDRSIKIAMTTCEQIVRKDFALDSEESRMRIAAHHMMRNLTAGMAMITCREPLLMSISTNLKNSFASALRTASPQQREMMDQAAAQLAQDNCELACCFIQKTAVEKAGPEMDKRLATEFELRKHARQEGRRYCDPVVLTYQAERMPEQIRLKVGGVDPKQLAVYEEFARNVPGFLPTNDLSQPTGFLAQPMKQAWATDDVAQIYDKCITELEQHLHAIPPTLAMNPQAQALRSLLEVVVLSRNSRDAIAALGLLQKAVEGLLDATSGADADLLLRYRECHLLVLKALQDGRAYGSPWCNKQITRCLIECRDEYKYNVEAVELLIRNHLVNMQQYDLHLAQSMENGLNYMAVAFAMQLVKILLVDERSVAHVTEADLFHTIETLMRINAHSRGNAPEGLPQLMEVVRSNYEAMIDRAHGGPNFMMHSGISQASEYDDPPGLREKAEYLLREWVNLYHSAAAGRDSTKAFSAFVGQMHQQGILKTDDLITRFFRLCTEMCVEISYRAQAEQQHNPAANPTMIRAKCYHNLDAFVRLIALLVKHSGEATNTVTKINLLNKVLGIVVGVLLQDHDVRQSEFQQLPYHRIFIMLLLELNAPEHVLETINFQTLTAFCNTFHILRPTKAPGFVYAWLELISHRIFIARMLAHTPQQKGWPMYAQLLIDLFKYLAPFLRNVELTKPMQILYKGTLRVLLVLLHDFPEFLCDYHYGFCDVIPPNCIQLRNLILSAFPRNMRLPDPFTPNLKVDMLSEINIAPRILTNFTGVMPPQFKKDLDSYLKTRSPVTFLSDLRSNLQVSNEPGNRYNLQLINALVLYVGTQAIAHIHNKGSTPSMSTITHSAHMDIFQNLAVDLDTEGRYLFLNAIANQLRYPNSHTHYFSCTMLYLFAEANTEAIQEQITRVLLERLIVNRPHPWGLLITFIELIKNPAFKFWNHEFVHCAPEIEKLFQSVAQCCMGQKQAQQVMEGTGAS
UniProt Q9ULV3: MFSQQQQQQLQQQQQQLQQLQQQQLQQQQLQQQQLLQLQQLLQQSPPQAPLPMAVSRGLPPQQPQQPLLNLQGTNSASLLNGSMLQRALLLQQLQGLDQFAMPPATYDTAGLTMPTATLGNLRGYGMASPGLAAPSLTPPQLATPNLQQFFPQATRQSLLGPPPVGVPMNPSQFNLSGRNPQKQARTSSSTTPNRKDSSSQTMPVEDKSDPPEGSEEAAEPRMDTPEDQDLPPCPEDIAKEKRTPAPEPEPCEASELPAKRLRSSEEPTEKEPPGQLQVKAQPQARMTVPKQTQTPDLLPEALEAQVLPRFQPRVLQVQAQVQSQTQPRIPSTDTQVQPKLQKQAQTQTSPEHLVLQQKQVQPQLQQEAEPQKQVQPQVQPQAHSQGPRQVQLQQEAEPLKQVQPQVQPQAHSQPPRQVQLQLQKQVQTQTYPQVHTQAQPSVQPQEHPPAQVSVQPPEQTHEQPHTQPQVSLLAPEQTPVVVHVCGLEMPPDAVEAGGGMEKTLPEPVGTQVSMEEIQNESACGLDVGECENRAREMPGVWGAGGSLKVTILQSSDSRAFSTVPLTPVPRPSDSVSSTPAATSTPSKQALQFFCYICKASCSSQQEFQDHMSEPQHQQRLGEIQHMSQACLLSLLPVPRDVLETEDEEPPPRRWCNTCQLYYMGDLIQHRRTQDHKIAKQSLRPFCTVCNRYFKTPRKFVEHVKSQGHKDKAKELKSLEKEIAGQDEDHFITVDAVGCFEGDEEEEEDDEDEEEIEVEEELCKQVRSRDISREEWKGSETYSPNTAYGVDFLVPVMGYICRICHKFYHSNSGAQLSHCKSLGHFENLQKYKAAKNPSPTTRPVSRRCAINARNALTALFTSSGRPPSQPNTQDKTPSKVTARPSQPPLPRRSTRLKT
UniProt Q9H6Q4: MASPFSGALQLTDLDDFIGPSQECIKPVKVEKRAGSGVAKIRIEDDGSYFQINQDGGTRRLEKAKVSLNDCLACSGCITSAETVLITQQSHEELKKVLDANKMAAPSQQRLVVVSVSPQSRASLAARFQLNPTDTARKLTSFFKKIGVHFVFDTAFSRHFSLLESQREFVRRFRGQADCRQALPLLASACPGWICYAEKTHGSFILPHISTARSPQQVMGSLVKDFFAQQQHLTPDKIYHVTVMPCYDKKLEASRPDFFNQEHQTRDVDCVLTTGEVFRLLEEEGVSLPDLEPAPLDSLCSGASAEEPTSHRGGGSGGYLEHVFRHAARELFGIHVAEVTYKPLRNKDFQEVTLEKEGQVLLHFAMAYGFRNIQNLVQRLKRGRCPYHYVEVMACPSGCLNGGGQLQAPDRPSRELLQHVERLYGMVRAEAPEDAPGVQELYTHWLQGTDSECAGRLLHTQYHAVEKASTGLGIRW
UniProt Q9NZ45: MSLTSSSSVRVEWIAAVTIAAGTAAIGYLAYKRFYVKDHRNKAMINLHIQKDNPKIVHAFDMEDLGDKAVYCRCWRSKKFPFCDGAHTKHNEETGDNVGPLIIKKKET
UniProt Q7Z7K0: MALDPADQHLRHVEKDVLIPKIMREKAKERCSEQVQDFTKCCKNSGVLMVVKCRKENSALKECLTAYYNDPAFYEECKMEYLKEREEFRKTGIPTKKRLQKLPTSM
UniProt Q5JTJ3: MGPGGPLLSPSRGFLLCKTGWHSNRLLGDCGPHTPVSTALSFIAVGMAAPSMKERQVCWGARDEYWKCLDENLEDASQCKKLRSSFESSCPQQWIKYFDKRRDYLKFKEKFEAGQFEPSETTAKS

Legend:
Test in all cases: log2 fold change, soluble protein after heating vs DMSO (PISA); higher = thermal stabilisation; K562 cells, 10 uM, 30 min; active = over 0.2 and 3.5 SD of the protein, either way, in both replicates (recomputed)
[1] = compound: COC1=CC=C(C=C1)CN2C=CC3=C2C=C(C=C3)C(=O)NO
How it was run: (§1)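 K562 cells at 2×10^6 cells/mL were given 10 μM compound for 30 min. Aliquots then went through 3 min of heating across 48°C-58°C, were pooled, and were extracted in PBS with 0.5% NP-40 at 4°C, and the supernatant after 21,000xg for 90 min was quantified by TMTpro 16plex LC-MS/MS with channel sums equalised. Thermal stability relative to control samples, from duplicates, is given as log2 fold change.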

filanesib = compound: CON(C)C(=O)N1N=C(c2cc(F)ccc2F)S[C@@]1(CCCN)c1ccccc1 [filanesib]
How it was run: as §1

zotarolimus = compound: CO[C@H]1C[C@@H]2CC[C@@H](C)[C@@](O)(O2)C(=O)C(=O)N2CCCC[C@H]2C(=O)O[C@H]([C@H](C)C[C@@H]2CC[C@H](n3cnnn3)[C@H](OC)C2)CC(=O)[C@H](C)/C=C(\C)[C@@H](O)[C@@H](OC)C(=O)[C@H](C)C[C@H](C)/C=C/C=C/C=C/1C [zotarolimus]
How it was run: as §1

idasanutlin = compound: COc1cc(C(=O)O)ccc1NC(=O)[C@@H]1N[C@@H](CC(C)(C)C)[C@](C#N)(c2ccc(Cl)cc2F)[C@H]1c1cccc(Cl)c1F [idasanutlin]
How it was run: as §1

alisertib = compound: COc1cc(Nc2ncc3c(n2)-c2ccc(Cl)cc2C(c2c(F)cccc2OC)=NC3)ccc1C(=O)O [alisertib]
How it was run: as §1

[2] = compound: COc1cc2nc(-c3cc(F)ccc3O)nc(N[C@@H]3CNC[C@H]3C(C)(C)O)c2cc1OC
How it was run: as §1

gefitinib = compound: COc1cc2ncnc(Nc3ccc(F)c(Cl)c3)c2cc1OCCCN1CCOCC1 [gefitinib]
How it was run: as §1

[3] = compound: COc1cccc2cc(-c3nc([C@H]4CC[C@H](C(=O)O)CC4)n4ncnc(N)c34)[nH]c12
How it was run: as §1

lapatinib = compound: CS(=O)(=O)CCNCc1ccc(-c2ccc3ncnc(Nc4ccc(OCc5cccc(F)c5)c(Cl)c4)c3c2)o1 [lapatinib]
How it was run: as §1

[4] = compound: CS(=O)(=O)c1ccc(-c2cnc(N)c(C(=O)Nc3ccccc3)n2)cc1
How it was run: as §1

crizotinib = compound: C[C@@H](Oc1cc(-c2cnn(C3CCNCC3)c2)cnc1N)c1c(Cl)ccc(F)c1Cl [crizotinib]
How it was run: as §1

[5] = compound: C[C@@H]1COCCN1C2=NC(=NC(=C2)C3(CC3)S(=O)(=O)C)C4=C5C=CNC5=CC=C4
How it was run: as §1

[6] = compound: C[C@H](C1=CC=C(C=C1)C(=O)NC2=C3C=CNC3=NC=C2)N
How it was run: as §1

duvelisib = compound: C[C@H](Nc1ncnc2nc[nH]c12)c1cc2cccc(Cl)c2c(=O)n1-c1ccccc1 [duvelisib]
How it was run: as §1

gandotinib = compound: Cc1cc(Nc2cc(CN3CCOCC3)c3nc(C)c(Cc4ccc(Cl)cc4F)n3n2)n[nH]1 [gandotinib]
How it was run: as §1

tozasertib = compound: Cc1cc(Nc2cc(N3CCN(C)CC3)nc(Sc3ccc(NC(=O)C4CC4)cc3)n2)n[nH]1 [tozasertib]
How it was run: as §1

[7] = compound: Cc1cc(SCc2sc(-c3ccc(C(F)(F)F)cc3)nc2C)ccc1OCC(=O)O
How it was run: as §1

doramapimod = compound: Cc1ccc(-n2nc(C(C)(C)C)cc2NC(=O)Nc2ccc(OCCN3CCOCC3)c3ccccc23)cc1 [doramapimod]
How it was run: as §1

ispinesib = compound: Cc1ccc(C(=O)N(CCCN)[C@@H](c2nc3cc(Cl)ccc3c(=O)n2Cc2ccccc2)C(C)C)cc1 [ispinesib]
How it was run: as §1

pictilisib = compound: CS(=O)(=O)N1CCN(Cc2cc3nc(-c4cccc5[nH]ncc45)nc(N4CCOCC4)c3s2)CC1 [pictilisib]
How it was run: as §1

Measured: log2 fold change

CLIC4 (UniProt Q9Y696)
inactive: [1] 0.005 | filanesib -0.017 | zotarolimus -0.002 | idasanutlin -0.013 | alisertib -0.034 | [2] 0.038 | gefitinib 0.016 | [3] 0.061 | lapatinib -0.015 | [4] 0.032 | crizotinib 0.051 | [5] 0.129 | [6] -0.011 | duvelisib 0.064 | gandotinib 0.017 | tozasertib 0.026 | [7] 0.003 | doramapimod -0.033 | ispinesib 0.059

CNOT7 (UniProt Q9UIV1)
inactive: [1] -0.032 | filanesib 0.012 | zotarolimus 0.018 | idasanutlin -0.008 | alisertib -0.011 | [2] 0.233 | gefitinib 0.134 | [3] -0.067 | lapatinib -0.036 | pictilisib 0.001 | [4] -0.052 | crizotinib -0.097 | [5] 0.043 | [6] 0.219 | gandotinib -0.003 | [7] 0.022 | doramapimod 0.07 | ispinesib -0.072

CNOT2 (UniProt Q9NZN8)
inactive: [1] -0.006 | filanesib 0.006 | zotarolimus 0.014 | idasanutlin 0.005 | alisertib -0.01 | [2] 0.021 | gefitinib 0.017 | [3] -0.021 | lapatinib 0.048 | pictilisib 0.04 | [4] 0.028 | crizotinib -0.019 | [5] 0.038 | [6] 0.046 | gandotinib -0.045 | [7] 0.077 | doramapimod -0.012 | ispinesib -0.02

Copied from the listing (2 entries):
CNOT7 (UniProt Q9UIV1)
inactive: [1] -0.032 | filanesib 0.012 | zotarolimus 0.018 | idasanutlin -0.008 | alisertib -0.011 | [2] 0.233 | gefitinib 0.134 | [3] -0.067 | lapatinib -0.036 | pictilisib 0.001 | [4] -0.052 | crizotinib -0.097 | [5] 0.043 | [6] 0.219 | gandotinib -0.003 | [7] 0.022 | doramapimod 0.07 | ispinesib -0.072

CNOT2 (UniProt Q9NZN8)
inactive: [1] -0.006 | filanesib 0.006 | zotarolimus 0.014 | idasanutlin 0.005 | alisertib -0.01 | [2] 0.021 | gefitinib 0.017 | [3] -0.021 | lapatinib 0.048 | pictilisib 0.04 | [4] 0.028 | crizotinib -0.019 | [5] 0.038 | [6] 0.046 | gandotinib -0.045 | [7] 0.077 | doramapimod -0.012 | ispinesib -0.02

The results go on.

COCH (UniProt O43405)
inactive: [1] -0.018 | filanesib 0.024 | zotarolimus -0.018 | idasanutlin 0.077 | alisertib -0.063 | [2] -0.144 | gefitinib 0.131 | [3] -0.078 | lapatinib 0.049 | pictilisib 0.001 | [4] -0.051 | crizotinib -0.05 | [5] -0.033 | [6] -0.016 | gandotinib 0.059 | [7] -0.053 | doramapimod 0.052 | ispinesib -0.042

CHP1 (UniProt Q99653)
inactive: [1] 0.039 | filanesib -0.044 | zotarolimus 0.058 | idasanutlin -0.084 | alisertib -0.144 | [2] 0.129 | gefitinib 0.026 | [3] -0.02 | lapatinib -0.054 | pictilisib 0.053 | [4] 0.025 | crizotinib 0.109 | [5] -0.061 | [6] -0.027 | gandotinib 0.022 | [7] -0.026 | doramapimod -0.021 | ispinesib 0.25

COA4 isoform 2 (UniProt Q9NYJ1)
inactive: [1] 0.025 | filanesib 0.124 | zotarolimus 0.041 | idasanutlin -0.051 | alisertib -0.094 | [2] -0.114 | gefitinib 0.019 | [3] 0.051 | lapatinib -0.067 | pictilisib 0.04 | [4] -0.121 | crizotinib 0.19 | [5] 0.069 | [6] -0.019 | duvelisib -0.015 | gandotinib -0.012 | [7] -0.066 | doramapimod 0.017 | ispinesib 0.21

CNTN4 (UniProt Q8IWV2)
inactive: [1] 0.1 | filanesib 0 | zotarolimus 0.017 | idasanutlin -0.148 | alisertib -0.399 | [2] 0.341 | gefitinib -0.039 | [3] -0.169 | lapatinib -0.047 | pictilisib 0.222 | [4] -0.03 | crizotinib 0.064 | [5] 0.148 | [6] -0.099 | gandotinib 0.144 | [7] -0.087 | doramapimod -0.095 | ispinesib -0.046

CNOT1 (UniProt A5YKK6)
inactive: [1] 0.002 | filanesib -0.019 | zotarolimus 0.02 | idasanutlin -0.032 | alisertib -0.022 | [2] 0.053 | gefitinib -0.021 | [3] -0.031 | lapatinib 0.02 | pictilisib -0.046 | [4] 0.006 | crizotinib -0.087 | [5] -0.034 | [6] 0.033 | gandotinib -0.043 | [7] 0.076 | doramapimod -0.025 | ispinesib -0.038

CIZ1 (UniProt Q9ULV3)
inactive: [1] 0.039 | filanesib 0.04 | zotarolimus -0.006 | idasanutlin 0.054 | alisertib -0.042 | [2] -0.106 | gefitinib -0.099 | [3] 0.034 | lapatinib 0.025 | pictilisib 0.05 | [4] -0.008 | crizotinib -0.097 | [5] 0.017 | [6] -0.079 | gandotinib -0.121 | [7] 0.016 | doramapimod 0.005 | ispinesib -0.015

CLTC (UniProt Q00610)
inactive: [1] 0.016 | filanesib -0.051 | zotarolimus -0.009 | idasanutlin -0.13 | alisertib -0.082 | [2] 0.059 | gefitinib 0.068 | [3] -0.053 | lapatinib 0.045 | [4] 0.029 | crizotinib 0.014 | [5] -0.08 | [6] 0.096 | duvelisib -0.041 | gandotinib -0.038 | tozasertib 0.03 | [7] -0.011 | doramapimod 0.007 | ispinesib 0.023

CIAO3 (UniProt Q9H6Q4)
inactive: [1] 0.028 | filanesib -0.031 | zotarolimus 0.025 | idasanutlin -0.031 | alisertib -0.006 | [2] 0.03 | gefitinib -0.004 | [3] 0.101 | lapatinib -0.036 | pictilisib 0.133 | [4] 0.058 | crizotinib -0.02 | [5] 0.078 | [6] 0.011 | duvelisib 0.109 | gandotinib -0.067 | tozasertib -0.001 | [7] 0.01 | doramapimod 0 | ispinesib 0.013

CISD1 (UniProt Q9NZ45)
inactive: [1] 0.018 | filanesib -0.03 | zotarolimus 0.028 | idasanutlin 0.074 | alisertib -0.003 | [2] 0 | gefitinib -0.003 | [3] 0.041 | lapatinib -0.024 | pictilisib 0.035 | [4] 0.038 | crizotinib 0.054 | [5] 0.035 | [6] -0.052 | duvelisib -0.03 | gandotinib 0.053 | tozasertib -0.026 | [7] -0.027 | doramapimod 0.002 | ispinesib 0.038

CMC1 (UniProt Q7Z7K0)
inactive: [1] -0.035 | filanesib -0.032 | zotarolimus 0.026 | idasanutlin 0.11 | alisertib -0.112 | [2] -0.084 | gefitinib 0.046 | [3] 0.02 | lapatinib 0.031 | pictilisib -0.217 | [4] 0.015 | crizotinib 0.045 | [5] -0.066 | [6] -0.057 | duvelisib -0.097 | gandotinib 0.06 | tozasertib -0.045 | [7] -0.17 | doramapimod -0.073 | ispinesib 0.036

COA6 isoform 2 (UniProt Q5JTJ3)
inactive: [1] 0.02 | filanesib -0.029 | zotarolimus 0.019 | idasanutlin -0.052 | alisertib 0.002 | [2] -0.042 | gefitinib -0.003 | [3] 0.022 | lapatinib -0.017 | pictilisib -0.006 | [4] 0.026 | crizotinib -0.001 | [5] -0.07 | [6] -0.155 | gandotinib 0.082 | [7] 0.159 | doramapimod 0 | ispinesib 0.035

CNPY3 (UniProt Q9BT09)
inactive: [1] -0.04 | filanesib -0.014 | zotarolimus -0.031 | idasanutlin -0.022 | alisertib -0.023 | [2] 0.001 | gefitinib -0.008 | [3] 0.029 | lapatinib -0.057 | pictilisib 0.056 | [4] 0.007 | crizotinib 0.081 | [5] 0.015 | [6] 0.024 | duvelisib 0.089 | gandotinib -0.013 | tozasertib -0.028 | [7] -0.049 | doramapimod -0.015 | ispinesib 0.014

CKAP5 (UniProt Q14008)
inactive: [1] 0.016 | filanesib 0.043 | zotarolimus 0.041 | idasanutlin 0.03 | alisertib -0.088 | [2] -0.009 | gefitinib 0.001 | [3] -0.155 | lapatinib -0.01 | pictilisib -0.024 | [4] -0.038 | crizotinib -0.215 | [5] -0.015 | [6] 0.144 | duvelisib -0.055 | gandotinib -0.06 | tozasertib -0.026 | [7] 0.116 | doramapimod 0.129 | ispinesib -0.217

CHST11 (UniProt Q9NPF2)
inactive: [1] 0.153 | filanesib 0.016 | zotarolimus 0.061 | idasanutlin -0.016 | alisertib -0.248 | [2] -0.19 | gefitinib -0.013 | [3] 0.012 | lapatinib 0.297 | pictilisib -0.025 | [4] 0.056 | crizotinib -0.106 | [5] -0.037 | [6] 0.019 | gandotinib 0.029 | doramapimod 0.087 | ispinesib -0.068
